Patent publication US20210300981A1, “COMPOSITIONS AND METHODS FOR COMBATING MULTIDRUG-RESISTANT BACTERIA” (University of Virginia Patent Foundation, priority 2018, published 2021)
For some assays here: Part of at least one peptide drawing is inferred or uncertain, most often the ends. Some results were stated once for a whole list of compounds, not compound by compound. Where a SMILES comes first, the peptide text is derived from it. Where no end group is shown, it is not given here.

Tests used:
CRE K. pneumoniae [1] = type: cell-based, Klebsiella pneumoniae; details: RPMI/HEPES
MDR S. Typhi [2] = type: cell-based, Salmonella enterica serovar Typhi; details: 50 μM, RPMI/HEPES, 2.5×10^5 cfu/ml
[3] = tested on: B. anthracis Sterne strain 7702 spores; type: cell-based, Bacillus anthracis
CD45+/CD3+ T lymphocytes = assay: Host-targeted bioregulatory effects: in vivo recruitment/infiltration of T lymphocytes; set-up: species or system C57BL/6 mice; details: as stated in the sequence description; FIG. 12
MDR A. baumannii = details: 1.4 μM peptide (tested concentration nearest that killing ~99.0-99.9%), 2 hours, 10 mM potassium phosphate buffer + 1% Tryptic Soy Broth
MDR S. flexneri = details: 2.8 μM peptide (tested concentration nearest that killing ~99.0-99.9%), 2 hours, 10 mM potassium phosphate buffer + 1% Tryptic Soy Broth
MDR S. Typhi [4] = details: 2.8 μM peptide (tested concentration nearest that killing ~99.0-99.9%), 2 hours, 10 mM potassium phosphate buffer + 1% Tryptic Soy Broth
CRE K. pneumoniae [5] = details: 5.6 μM peptide (tested concentration nearest that killing ~99.0-99.9%), 2 hours, 10 mM potassium phosphate buffer + 1% Tryptic Soy Broth
MDR P. aeruginosa = details: 5.6 μM peptide (tested concentration nearest that killing ~99.0-99.9%), 2 hours, 10 mM potassium phosphate buffer + 1% Tryptic Soy Broth
MRSA = details: 11.2 μM peptide (tested concentration nearest that killing ~99.0-99.9%), 2 hours, 10 mM potassium phosphate buffer + 1% Tryptic Soy Broth
VRE = details: 11.2 μM peptide (tested concentration nearest that killing ~99.0-99.9%), 2 hours, 10 mM potassium phosphate buffer + 1% Tryptic Soy Broth
MDR Enterobacter cloacae = details: 16.8 μM peptide (tested concentration nearest that killing ~99.0-99.9%), 2 hours, 10 mM potassium phosphate buffer + 1% Tryptic Soy Broth
B. anthracis = details: 22.4 μM peptide (tested concentration nearest that killing ~99.0-99.9%), 2 hours, RPMI/HEPES

Molecule	bactericidal activity versus negative control Peptide P5 (CRE K. pneumoniae [1]; 50 μM, 2.5×10^5 cfu/ml)	activity in RPMI (normosaline) (CRE K. pneumoniae [1]; 2 hours at 37° C., FIG. 10)	bactericidal activity versus negative control Peptide P5 (MDR S. Typhi [2])	spore germination (numbers of bacilli) [3]	immunomodulatory activity (CD45+/CD3+ T lymphocytes)	killing of bacteria (MDR A. baumannii)	killing of bacteria (MDR S. flexneri)	killing of bacteria (MDR S. Typhi [4])	killing of bacteria (CRE K. pneumoniae [5])	killing of bacteria (MDR P. aeruginosa)	killing of bacteria (MRSA)	killing of bacteria (VRE)	killing of bacteria (MDR Enterobacter cloacae)	killing of bacteria (B. anthracis)
CC[C@H](C)[C@H](NC(=O)[C@H](CO)NC(=O)[C@@H](NC(=O)[C@H](CS)NC(=O)[C@@H](NC(=O)[C@H](CS)NC(=O)[C@H](CCCNC(=N)N)NC(=O)[C@@H](NC(=O)[C@@H](NC(=O)[C@H](CCCNC(=N)N)NC(=O)[C@H](CO)NC(=O)[C@H](CC(C)C)NC(=O)[C@@H]1CCCN1C(=O)[C@@H](N)C(C)C)[C@@H](C)O)C(C)C)[C@@H](C)O)[C@@H](C)CC)C(=O)O [Peptide P1, VPLSRTVRCTCISI] (H-VPLSRTVRCTCISI-OH; N-terminus and C-terminus assumed)	statistically significant differences	retained activity	statistically significant differences	reduced spore germination	immunomodulatory activity									
PESKAIKNLLKAVSKERSKRSP [Peptide P9]						99.0-99.9%	99.0-99.9%	99.0-99.9%	99.0-99.9%	99.0-99.9%	99.0-99.9%	99.0-99.9%	99.0-99.9%	99.0-99.9%
